Measurements reported in patent US20200199202A1.
Results are given in words; binding and its absence hold for the method and conditions named. Some binding calls cover weakened binding; strength is not graded here.

Protein sequences, listed by entry. Tags and fused reporters are not part of them. Lines headed by an entry give the natural chain unless they say otherwise; changes in a name come on top.
UniProt O15118: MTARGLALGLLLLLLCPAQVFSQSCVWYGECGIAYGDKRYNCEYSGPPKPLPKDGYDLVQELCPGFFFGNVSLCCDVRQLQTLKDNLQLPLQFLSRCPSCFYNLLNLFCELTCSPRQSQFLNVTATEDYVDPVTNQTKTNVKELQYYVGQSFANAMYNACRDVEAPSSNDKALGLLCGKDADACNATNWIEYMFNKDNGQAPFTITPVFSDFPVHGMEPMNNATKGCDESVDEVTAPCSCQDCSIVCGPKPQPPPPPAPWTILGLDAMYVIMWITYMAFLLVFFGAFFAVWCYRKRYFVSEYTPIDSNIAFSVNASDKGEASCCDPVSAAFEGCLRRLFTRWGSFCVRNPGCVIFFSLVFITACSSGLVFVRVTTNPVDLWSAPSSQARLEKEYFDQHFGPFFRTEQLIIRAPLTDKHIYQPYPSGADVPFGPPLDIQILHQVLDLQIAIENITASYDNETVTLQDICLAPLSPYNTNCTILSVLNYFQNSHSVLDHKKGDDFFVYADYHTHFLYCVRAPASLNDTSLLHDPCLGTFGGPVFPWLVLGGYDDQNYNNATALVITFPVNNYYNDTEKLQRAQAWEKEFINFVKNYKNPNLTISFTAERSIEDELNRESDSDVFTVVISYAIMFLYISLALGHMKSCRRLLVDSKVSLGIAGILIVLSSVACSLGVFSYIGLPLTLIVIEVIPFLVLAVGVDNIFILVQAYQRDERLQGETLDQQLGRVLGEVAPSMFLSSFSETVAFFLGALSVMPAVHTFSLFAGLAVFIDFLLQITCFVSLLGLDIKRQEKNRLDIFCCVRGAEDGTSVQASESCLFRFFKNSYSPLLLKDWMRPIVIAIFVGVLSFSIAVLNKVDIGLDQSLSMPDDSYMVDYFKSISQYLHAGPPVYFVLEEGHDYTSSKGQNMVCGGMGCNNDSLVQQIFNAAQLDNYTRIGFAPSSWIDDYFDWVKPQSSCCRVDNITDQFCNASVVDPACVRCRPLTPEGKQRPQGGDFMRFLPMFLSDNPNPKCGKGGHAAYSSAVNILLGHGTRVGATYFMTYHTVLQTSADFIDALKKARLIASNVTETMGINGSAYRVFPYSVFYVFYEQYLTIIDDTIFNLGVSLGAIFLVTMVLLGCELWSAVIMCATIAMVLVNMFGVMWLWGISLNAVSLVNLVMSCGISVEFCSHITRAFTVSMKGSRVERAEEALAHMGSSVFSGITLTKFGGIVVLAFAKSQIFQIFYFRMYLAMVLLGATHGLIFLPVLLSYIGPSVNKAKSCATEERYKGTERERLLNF

Target: soluble human NPC1 domain C protein (human) (UniProt O15118)
Assay: BLI

B1: mAb 548 (anti-human NPC1 domain C monoclonal antibody) (antibody, V domains shown)
VH: EVQLQQSGAELVKPGASVKLSCTASGFNIKDTYMHWVKQRPEEGLEWIGRIDPADGNTEYVPKFQGKATITADTFSNTVYLQLSGLTSEDTAVYYCSRGYYWGQGTTLTVSS
VL: DIQMTQSPASLSASVGETVTITCRASENIYSYLAWYQQKQGKSPQLLVYNAKTLAEGVPSRFSGSGSGTQFSLKINSLQPEDFGIYYCQHHYGSPWAFGGGTKLEIK
B1 was tested, and the binding was “binds”.
